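A panel of named gynecologic cancer cell lines (ovarian and cervical) is scored for viability by ATP-dependent luminescence after 48 hours of compound exposure.
Each compound was tested at five concentrations, including 0.46, 2.3 and 57.5 µM as the top dose.
The number is the fitted AC50 potency, and a lower value means stronger cell killing.
Calls follow an activity score built from curve class and fitted AC50: 40 to 100 is active, 1 to 39 is inconclusive, and 0 is inactive.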

Values are in nM.
All entries here are filed as inconclusive.
These entries are mostly ones the record files as inconclusive; other results of the assay are not listed here.
A potency from a partial, single-point or poor curve is only a rough figure.
Some entries filed as inconclusive have a full curve.
The first word of each remark tells which way the curve ran; it can be opposite to the aim of the assay.
Activity scores are not listed here.

* CO[C@]12CC[C@@]3(C[C@@H]1[C@](C)(O)C(C)(C)C)[C@@H]1Cc4ccc(O)c5c4[C@@]3(CCN1CC1CC1)[C@H]2O5 [Es-2] : fitted potency 56234 nM (cytotoxic, single point)
* CO[C@]12CC[C@@]3(C[C@@H]1[C@](C)(O)C(C)(C)C)[C@@H]1Cc4ccc(O)c5c4[C@@]3(CCN1CC1CC1)[C@H]2O5 [HeLa] : fitted potency 70794 nM (cytotoxic, single point)
* CO[C@]12CC[C@@]3(C[C@@H]1[C@](C)(O)C(C)(C)C)[C@@H]1Cc4ccc(O)c5c4[C@@]3(CCN1CC1CC1)[C@H]2O5 [CAOV3] : fitted potency 70794 nM (cytotoxic, single point)
* CO[C@]12CC[C@@]3(C[C@@H]1[C@](C)(O)C(C)(C)C)[C@@H]1Cc4ccc(O)c5c4[C@@]3(CCN1CC1CC1)[C@H]2O5 [CASKI] : fitted potency 44668 nM (cytotoxic, single point)
* CO[C@]12CC[C@@]3(C[C@@H]1[C@](C)(O)C(C)(C)C)[C@@H]1Cc4ccc(O)c5c4[C@@]3(CCN1CC1CC1)[C@H]2O5 [OV90] : fitted potency 89125 nM (cytotoxic, single point)
* CO[C@]12CC[C@@]3(C[C@@H]1[C@](C)(O)C(C)(C)C)[C@@H]1Cc4ccc(O)c5c4[C@@]3(CCN1CC1CC1)[C@H]2O5 [Hek293T; control line for the selectivity index] : fitted potency 35481 nM (cytotoxic, single point)
* CO[C@]12CC[C@@]3(C[C@@H]1[C@](C)(O)C(C)(C)C)[C@@H]1Cc4ccc(O)c5c4[C@@]3(CCN1CC1CC1)[C@H]2O5 [C33A] : fitted potency 63095 nM (cytotoxic, single point)
* O=C(Nc1ncc(-c2cc(C(F)F)nn2-c2c(Cl)cccc2Cl)s1)C1CC1 [OV90] : fitted potency 10000 nM (cytotoxic, partial curve, poor fit)
* O=C(Nc1ncc(-c2cc(C(F)F)nn2-c2c(Cl)cccc2Cl)s1)C1CC1 [CASKI] : fitted potency 1995 nM (cytotoxic, full curve)
* O=C(Nc1ncc(-c2cc(C(F)F)nn2-c2c(Cl)cccc2Cl)s1)C1CC1 [SKOV3] : fitted potency 1412 nM (cytotoxic, single point)
* O=C(Nc1ncc(-c2cc(C(F)F)nn2-c2c(Cl)cccc2Cl)s1)C1CC1 [CAOV3] : fitted potency 794.3 nM (cytotoxic, full curve, poor fit)
* O=C(Nc1ncc(-c2cc(C(F)F)nn2-c2c(Cl)cccc2Cl)s1)C1CC1 [Hek293T; control line for the selectivity index] : fitted potency 1778 nM (cytotoxic, full curve)
* O=C(Nc1ncc(-c2cc(C(F)F)nn2-c2c(Cl)cccc2Cl)s1)C1CC1 [C33A] : fitted potency 1778 nM (cytotoxic, full curve, poor fit)
* O=C(Nc1ccc(Br)cc1)c1cc(Br)cc(Br)c1O [Es-2] : fitted potency 39810 nM (cytotoxic, single point)
* O=C(Nc1ccc(Br)cc1)c1cc(Br)cc(Br)c1O [JEG-3] : fitted potency 28183 nM (cytotoxic, partial curve, poor fit)
* O=C(Nc1ccc(Br)cc1)c1cc(Br)cc(Br)c1O [HeLa] : fitted potency 31622 nM (cytotoxic, partial curve)
* O=C(Nc1ccc(Br)cc1)c1cc(Br)cc(Br)c1O [OV90] : fitted potency 15848 nM (cytotoxic, partial curve, poor fit)
* C/C=C1\[C@H](O[C@@H]2O[C@H](CO)[C@@H](O)[C@H](O)[C@H]2O)OC=C2C(=O)OCCc3ccc(O)c(c3)Oc3ccc(cc3)CCOC(=O)C[C@H]21 [SKOV3] : fitted potency 11220 nM (cytotoxic, single point)
* C/C=C1\[C@H](O[C@@H]2O[C@H](CO)[C@@H](O)[C@H](O)[C@H]2O)OC=C2C(=O)OCCc3ccc(O)c(c3)Oc3ccc(cc3)CCOC(=O)C[C@H]21 [CASKI] : fitted potency 7943 nM (cytotoxic, partial curve, poor fit)
* C/C=C1\[C@H](O[C@@H]2O[C@H](CO)[C@@H](O)[C@H](O)[C@H]2O)OC=C2C(=O)OCCc3ccc(O)c(c3)Oc3ccc(cc3)CCOC(=O)C[C@H]21 [JEG-3] : fitted potency 7943 nM (cytotoxic, single point)
* C/C=C/C=C/C=C/C(=O)OC1C=C2C(O)OC(=O)[C@]2(O)[C@@]2(C)CCCC(C)(C)[C@H]12 (some centres undefined) [SKOV3] : fitted potency 1995 nM (rising, partial curve, poor fit)
* CC1(CCOC2OC(CO)C(O)C(O)C2O)CCC23OC2(C1)C(O)CC1C(C)(C(=O)O)CCCC13C (centres undefined) [PA-1] : fitted potency 19952 nM (cytotoxic, single point)
* CC1(CCOC2OC(CO)C(O)C(O)C2O)CCC23OC2(C1)C(O)CC1C(C)(C(=O)O)CCCC13C (centres undefined) [C33A] : fitted potency 3162 nM (cytotoxic, single point)
* CNCCc1ccccn1 [SKOV3] : fitted potency 2512 nM (rising, partial curve)
* COC(=O)c1[nH]c(=O)c2ccccc2c1-c1ccc[nH]1 [SKOV3] : fitted potency 25118 nM (cytotoxic, single point)
* COC(=O)c1[nH]c(=O)c2ccccc2c1-c1ccc[nH]1 [Es-2] : fitted potency 25118 nM (cytotoxic, partial curve, poor fit)

Data taken from PubChem BioAssay AID1345084, deposited by NCATS (2018).